These are yes or no findings as the source states them, for the method shown. Binding seen in cells or lysates may run through a third protein. Some binding calls cover weakened binding; strength is not graded here.
Molecular target: CYFIP1/SRA1, a subunit of the WAVE2 protein complex, endogenous protein of MCF-7 cells (human (endogenous in MCF-7)) (UniProt Q7L576)
Experiment: co-IP; MCF-7 cells, endogenous proteins; anti-GAS7 and anti-CYFIP1 antibodies used for IP and western blotting; normal goat IgG as negative control

By UniProt entry, the sequences of proteins in these tests, tags left out.
UniProt Q7L576: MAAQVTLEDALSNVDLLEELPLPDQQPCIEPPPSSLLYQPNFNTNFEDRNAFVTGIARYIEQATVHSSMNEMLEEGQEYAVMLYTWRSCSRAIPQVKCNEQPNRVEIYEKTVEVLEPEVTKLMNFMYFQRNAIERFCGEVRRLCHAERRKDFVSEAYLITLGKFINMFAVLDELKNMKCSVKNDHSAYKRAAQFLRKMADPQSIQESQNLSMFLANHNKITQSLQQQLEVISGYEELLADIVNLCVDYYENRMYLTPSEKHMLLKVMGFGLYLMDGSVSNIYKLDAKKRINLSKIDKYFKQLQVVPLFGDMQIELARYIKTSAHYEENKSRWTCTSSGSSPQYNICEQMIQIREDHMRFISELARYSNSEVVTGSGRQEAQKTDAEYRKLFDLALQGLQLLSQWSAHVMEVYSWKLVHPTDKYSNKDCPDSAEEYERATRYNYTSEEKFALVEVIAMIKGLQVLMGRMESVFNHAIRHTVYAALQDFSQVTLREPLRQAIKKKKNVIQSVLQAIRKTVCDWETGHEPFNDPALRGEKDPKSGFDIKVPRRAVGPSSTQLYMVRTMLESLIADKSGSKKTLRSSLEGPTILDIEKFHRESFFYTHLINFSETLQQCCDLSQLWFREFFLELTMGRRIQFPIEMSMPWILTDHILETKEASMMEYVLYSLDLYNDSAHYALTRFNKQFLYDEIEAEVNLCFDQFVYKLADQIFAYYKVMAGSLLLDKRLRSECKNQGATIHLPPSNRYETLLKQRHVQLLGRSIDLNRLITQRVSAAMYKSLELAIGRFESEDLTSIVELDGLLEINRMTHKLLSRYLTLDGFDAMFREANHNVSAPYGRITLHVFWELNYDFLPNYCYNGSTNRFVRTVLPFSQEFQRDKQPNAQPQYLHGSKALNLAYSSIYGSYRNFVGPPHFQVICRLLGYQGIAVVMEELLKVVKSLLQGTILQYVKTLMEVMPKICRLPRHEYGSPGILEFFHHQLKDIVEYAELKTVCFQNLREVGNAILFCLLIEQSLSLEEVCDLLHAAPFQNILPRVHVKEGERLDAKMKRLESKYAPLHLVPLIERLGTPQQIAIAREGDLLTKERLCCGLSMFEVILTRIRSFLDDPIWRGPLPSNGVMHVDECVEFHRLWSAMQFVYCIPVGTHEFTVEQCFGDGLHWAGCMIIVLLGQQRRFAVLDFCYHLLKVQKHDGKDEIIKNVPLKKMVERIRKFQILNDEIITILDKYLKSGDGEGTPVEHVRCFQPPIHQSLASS
UniProt Q9Y6W5: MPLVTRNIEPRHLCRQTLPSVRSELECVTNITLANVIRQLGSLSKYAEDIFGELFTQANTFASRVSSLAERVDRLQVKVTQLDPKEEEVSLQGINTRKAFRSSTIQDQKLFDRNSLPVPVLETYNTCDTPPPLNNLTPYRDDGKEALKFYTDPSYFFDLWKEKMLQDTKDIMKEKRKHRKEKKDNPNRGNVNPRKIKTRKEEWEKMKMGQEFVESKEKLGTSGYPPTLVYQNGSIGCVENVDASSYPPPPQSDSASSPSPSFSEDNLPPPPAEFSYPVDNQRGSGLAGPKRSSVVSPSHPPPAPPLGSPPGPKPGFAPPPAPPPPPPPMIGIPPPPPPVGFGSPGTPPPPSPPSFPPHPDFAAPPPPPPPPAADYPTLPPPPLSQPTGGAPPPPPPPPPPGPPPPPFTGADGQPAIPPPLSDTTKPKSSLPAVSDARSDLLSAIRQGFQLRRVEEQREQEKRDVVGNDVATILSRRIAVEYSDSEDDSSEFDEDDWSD

- binding: binds
Substance: WASP-family verprolin-homologous protein 2 (WAVE2), endogenous protein of MCF-7 cells (from UniProt Q9Y6W5 1-498)

From paper PMC6062498
